Among the data in paper PMC9233695, “Structural mechanism of protein recognition by the FW domain of autophagy receptor Nbr1” (Nature Communications, 2022) are binding values, retold here.

No constants are given. Whether binding was seen depends on the method and setting. Binding can be weak; no strength is given. Tags and fused reporters may be left off the sequences shown.

This assay has as its target T1, SpAtg8(1−115) fused to Pil1-mCherry (S. pombe) (UniProt O94272).
T1 sequence: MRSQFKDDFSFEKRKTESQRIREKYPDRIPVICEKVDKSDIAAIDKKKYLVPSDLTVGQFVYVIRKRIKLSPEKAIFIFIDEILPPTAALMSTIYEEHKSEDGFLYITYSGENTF
Kind of assay: Pil1 co-tethering assay; bait fused to Pil1-mCherry, prey fused to mECitrine, co-expressed in S. pombe; co-localisation on Pil1 filamentary structures by fluorescence microscopy; EMM medium, 30 °C.

For the substance “mECitrine-tagged CtNbr1 (Chaetomium thermophilum)”, the binding result is recorded as “binds”.
